# Reference: PubChem BioAssay AID1224830 (NIAID, 2016)
# Test: 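Host factors that control LPS-induced TNF expression in human macrophages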 (primary screen)
# System: human THP-1 monocytic leukaemia cells, TNF dual-luciferase reporter clone, PMA-differentiated to macrophage-like cells
# Knock-down reagent: siRNA pool against human genes, 50 nM
# Timing: LPS for 4 h, given about 3 days after siRNA transfection
# Treatment: bacterial LPS (TLR4 ligand), 10 ng/ml
# Measurement: 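TNF firefly reporter luminescence divided by renilla, normalised to the plate median, then turned into a robust z-score for each replicate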
# Reading the numbers: TNF reporter robust z-score: higher = stronger TNF reporter response to LPS
# Rule for the call: 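a well is active when its z-score exceeds 2.8 or falls below -1.5; control wells carry no call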
# The whole screen tested about 18,000 reagents; shown is a random part of them. Over the whole deposit, about 2,900 (16%) are marked active. 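Calls are made per well; low scores hint the gene aids the LPS response, high scores that it dampens it.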 A number with no mark means an inactive call. Repeated entries: four replicate wells of each siRNA pool. Reagent sequences are not shown.
target gene,TNF reporter robust z-score
ZNF683 (zinc finger protein 683),-0.94
ZNF683 (zinc finger protein 683),-0.57
ZNF683 (zinc finger protein 683),-0.99
ZNF683 (zinc finger protein 683),-0.7
MRPL17 (mitochondrial ribosomal protein L17),0.17
MRPL17 (mitochondrial ribosomal protein L17),0.33
MRPL17 (mitochondrial ribosomal protein L17),1.93
MRPL17 (mitochondrial ribosomal protein L17),0.8
CNOT7 (CCR4-NOT transcription complex subunit 7),-0.34
CNOT7 (CCR4-NOT transcription complex subunit 7),0
CNOT7 (CCR4-NOT transcription complex subunit 7),-0.74
CNOT7 (CCR4-NOT transcription complex subunit 7),-0.05
CDK8 (cyclin dependent kinase 8),-1.53 (active)
CDK8 (cyclin dependent kinase 8),0.9
CDK8 (cyclin dependent kinase 8),0.05
CDK8 (cyclin dependent kinase 8),-0.7
HOXA5 (homeobox A5),0.98
HOXA5 (homeobox A5),0.6
HOXA5 (homeobox A5),0.95
HOXA5 (homeobox A5),1.31
LRRC59 (leucine rich repeat containing 59),1.12
LRRC59 (leucine rich repeat containing 59),-0.14
LRRC59 (leucine rich repeat containing 59),0.09
LRRC59 (leucine rich repeat containing 59),1.73
ZNF680 (zinc finger protein 680),0.88
ZNF680 (zinc finger protein 680),1.8
ZNF680 (zinc finger protein 680),1.44
ZNF680 (zinc finger protein 680),-1.04
CTBP1 (C-terminal binding protein 1),-0.01
CTBP1 (C-terminal binding protein 1),-1.24
CTBP1 (C-terminal binding protein 1),0.89
CTBP1 (C-terminal binding protein 1),0.74
MYO19 (myosin XIX),0.68
MYO19 (myosin XIX),-0.22
MYO19 (myosin XIX),1.81
MYO19 (myosin XIX),-0.1
CSTA (cystatin A),-1.74 (active)
CSTA (cystatin A),-1.16
CSTA (cystatin A),-1.3
CSTA (cystatin A),-0.2
PDIA3 (protein disulfide isomerase family A member 3),-0.83
PDIA3 (protein disulfide isomerase family A member 3),-1.26
PDIA3 (protein disulfide isomerase family A member 3),-0.67
PDIA3 (protein disulfide isomerase family A member 3),-0.71
ORC4 (origin recognition complex subunit 4),0.35
ORC4 (origin recognition complex subunit 4),0.67
ORC4 (origin recognition complex subunit 4),0.98
ORC4 (origin recognition complex subunit 4),0.73
